Measured data: PubChem BioAssay AID1259425 (University of Nebraska Medical Center, 2018)
Aim: 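Seek colon cancer weak points whose silencing resembles KSR1 loss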 (primary screen). Cells: HCT116 human colon cancer cells. Reagent: siRNA pool against human genes, 50 nM siRNA. Measurement: 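mRNA of six signature genes measured together by branched-DNA assay after 50 nM siRNA pool, blank removed, divided by geometric mean of two housekeeping genes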. Scale: BNIP3L mRNA: higher = more BNIP3L transcript after knockdown; NDRG1 mRNA: higher = more NDRG1 transcript after knockdown.
The whole screen tested about 14,000 reagents; below is a part drawn at random. Further read-outs or replicates are left out here. No sequences are given here. Not given: the time to read-out.

ETV7: BNIP3L mRNA, set 1 = 0.0825; NDRG1 mRNA, set 1 = 0.11
HSP90B1: BNIP3L mRNA, set 1 = 0.0843; NDRG1 mRNA, set 1 = 0.179
RPL10A: BNIP3L mRNA, set 1 = 0.541; NDRG1 mRNA, set 1 = 1.26
MED13L: BNIP3L mRNA, set 1 = 0.14; NDRG1 mRNA, set 1 = 0.158
EXO1: BNIP3L mRNA, set 1 = 0.0939; NDRG1 mRNA, set 1 = 0.131
ZNF12: BNIP3L mRNA, set 1 = 0.102; NDRG1 mRNA, set 1 = 0.116
NPAS3: BNIP3L mRNA, set 1 = 0.167; NDRG1 mRNA, set 1 = 0.144
BCL2A1: BNIP3L mRNA, set 1 = 0.12; NDRG1 mRNA, set 1 = 0.123
UBE2K: BNIP3L mRNA, set 1 = 0.123; NDRG1 mRNA, set 1 = 0.0741
CD44: BNIP3L mRNA, set 1 = 0.045; NDRG1 mRNA, set 1 = 0.107
MARF1: BNIP3L mRNA, set 1 = 0.0934; NDRG1 mRNA, set 1 = 0.175
C9orf40: BNIP3L mRNA, set 1 = 0.0747; NDRG1 mRNA, set 1 = 0.212

The list goes on, starting with the last 2 of the part before.
MARF1: BNIP3L mRNA, set 1 = 0.0934; NDRG1 mRNA, set 1 = 0.175
C9orf40: BNIP3L mRNA, set 1 = 0.0747; NDRG1 mRNA, set 1 = 0.212
C1orf115: BNIP3L mRNA, set 1 = 0.067; NDRG1 mRNA, set 1 = 0.104
APCS: BNIP3L mRNA, set 1 = 0.0913; NDRG1 mRNA, set 1 = 0.097
SNTG1: BNIP3L mRNA, set 1 = 0.11; NDRG1 mRNA, set 1 = 0.195
SELENOT: BNIP3L mRNA, set 1 = 0.138; NDRG1 mRNA, set 1 = 1.55
ARHGAP26: BNIP3L mRNA, set 1 = 0.0945; NDRG1 mRNA, set 1 = 0.128
IPCEF1: BNIP3L mRNA, set 1 = 0.103; NDRG1 mRNA, set 1 = 0.181
UPK3B: BNIP3L mRNA, set 1 = 0.0329; NDRG1 mRNA, set 1 = 0.274
